The structures appear in SMILES notation. The list shows a part of the results. The main result of the screen is listed elsewhere. These columns were measured beside it and carry no call. Most of these compounds were active or inconclusive in the main read-out, so they are no random draw. The note in brackets gives the kind of curve behind each potency; many fits are weak.

Data on 57 compounds can be found in PubChem BioAssay AID1487 (National Center for Advancing Translational Sciences (NCATS), 2009).

The nature of the assay: qHTS Assay for Modulators of Lamin A Splicing. The following applies: HeLa LMNA splicing GFP/RFP minigene ratio, 48 h. Put shortly: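 S3 HeLa cells stably expressing lamin A-EGFP splicing minigene plus DsRed2, 600 cells/well, 48 h compound exposure at 37C. Laser-scanning cytometry; analysed as GFP (500-530 nm)/RFP (575-640 nm) total intensity ratio; 0.5% DMSO vehicle.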
The mark [1] stands for this setting: measured here: GFP splicing reporter channel.
[2] abbreviates: measured here: RFP viability control channel.

Consider `CC1Cc2ccccc2N1C(=O)CSc1nnc(Cn2nnc3ccccc32)n1C` (configuration not stated), for which, under setting [1], the AC50 – broadly, the concentration giving half of the maximal activity seen – is 15.8 µM [rising, partial curve, poor fit]. Turning to `COC(=O)c1ccccc1NC(=O)COc1ccc(S(=O)(=O)NC(C)C)cc1`, under setting [2], the concentration at half-maximal activity (AC50) was 0.00708 µM [falling, full curve, poor fit].

For the compound `COC(=O)c1cccc(S(=O)(=O)N2CCC(n3nnc4cc(F)ccc43)CC2)c1`, the concentration at half-maximal activity (AC50) runs as follows: under setting [1], 35.5 µM [rising, single point]; under setting [2], 35.5 µM [rising, single point]. Take `COc1ccc(O)c(/C=N/Nc2nc(Nc3ccccc3)nc(-n3nc(C)cc3C)n2)c1`: under setting [2], the concentration at half-maximal activity (AC50) is 35.5 µM [falling, single point]. For `COc1cc(NC(=O)c2cc3ccccc3o2)c(OC)cc1Br`, the AC50 under setting [2] is 1.12 µM [falling, partial curve]. Regarding `N/C(=N\OC(=O)Cc1ccc([N+](=O)[O-])cc1)c1ccccn1`, under setting [1], the AC50 was 6.31 µM [falling, partial curve]. Same read-out and setting: the result for `CC12CCC(=O)N1C(C(=O)OCC(=O)Nc1cccc(Br)c1)CS2` (configuration not stated) reads 7.94 µM [falling, full curve, poor fit].

For the compound `CCOC(=O)C1CCCN(Cc2nc(N)nc(Nc3ccc(C)cc3)n2)C1` (configuration not stated), under setting [2], the concentration at half-maximal activity (AC50) is 14.1 µM [rising, single point]. On the same count and under the same terms, then `O=C(/C=C/c1ccccc1)N1CCN(c2ccc([N+](=O)[O-])c(N3CCOCC3)c2)CC1`, with 3.98 µM [rising, single point].

Turning to `Cc1ccc(S(=O)(=O)Nc2cccc(-c3ccc4nnc(C)n4n3)c2)s1`, under setting [1], the AC50 was 6.31 µM [falling, full curve]. Still for that read-out and setting: the result for `CCCc1nc2sc3c(c2c(=O)n1NC(=O)CCCl)CCCC3` reads 11.2 µM [falling, partial curve, poor fit]. The same measure, in the same setting: the result for `CCN1C(=O)c2ccccc2Sc2ccc(NC(=O)Cc3ccc(OC)cc3)cc21` reads 2 µM [falling, full curve]. For `Cc1ccc(-n2c(C)cc(C(=O)COC(=O)c3c(C)noc3C)c2C)cc1`, under setting [2], the AC50 is 12.6 µM [rising, partial curve].

Turning to `Cc1nn(-c2ccccc2)c2sc(C(=O)N3CCc4ccccc4C3)cc12`, the concentration at half-maximal activity (AC50) is, setting by setting: under setting [1], 11.2 µM [rising, partial curve]; under setting [2], 11.2 µM [rising, single point]. On to `Cc1ccc(NC(=O)c2cccs2)cc1NC(=O)c1cccnc1`, for which the AC50 by setting is: under setting [1], 2.82 µM [falling, partial curve, poor fit]; under setting [2], 0.891 µM [falling, partial curve, poor fit]. With `C[C@@]12CCC(OC(=O)c3ccccc3)CC1CCc1ccccc12` (some centres not stated), the AC50 under setting [2] was 15.8 µM [rising, single point].

As for `O=C(CN1CCC(n2nnc3cc(C(F)(F)F)ccc32)CC1)NCc1cccs1`, the AC50 runs as follows: under setting [1], 12.6 µM [rising, single point]; under setting [2], 17.8 µM [rising, single point]. On to `O=C(Nc1cccc(Cl)c1)c1ccc(NCCCN2CCOCC2)c([N+](=O)[O-])c1`, for which the AC50 under setting [1] was 0.0282 µM [falling, single point] and the AC50 under setting [2] was 0.0178 µM [falling, partial curve].

In the case of `O=C(CCc1ccc(S(=O)(=O)NCc2ccccc2)cc1)NCc1ccco1`, the AC50 under setting [1] was 35.5 µM [rising, single point]. Regarding `NNC(=S)Nc1ccccc1Cl`, the AC50 under setting [2] is 22.4 µM [falling, partial curve]. Turning to `COc1ccc(S(=O)(=O)N2CCN(C(=S)NC3CCCCC3)CC2)cc1`, the AC50 under setting [1] is 3.16 µM [falling, partial curve, poor fit]. As to `COc1cccc(NS(=O)(=O)c2cc3c4c(c2)C(C)C(=O)N4CCC3)c1` (configuration not stated), the AC50 under setting [2] is 0.282 µM [falling, partial curve, poor fit]. As to `CCc1ccc(NC(=O)c2c(C(=O)Nc3ccccc3)sc3nc(C)cc(=O)n23)cc1`, the AC50 under setting [1] is 0.224 µM [rising, full curve, poor fit].

Take `COc1ccc(-n2nnnc2SCC(=O)c2ccc3c(c2)OCCO3)c(OC)c1`: the AC50 by setting is: under setting [1], 2.51 µM [rising, full curve]; under setting [2], 2.51 µM [rising, full curve].

For the compound `COc1ccc(NC(=O)CCNS(=O)(=O)c2ccc3c(c2)CCN3C(=O)C2CC2)cc1Cl`, the AC50 under setting [1] was 126 µM [falling, partial curve]. As for `Cc1nc2ccc(S(=O)(=O)Nc3ccc(-c4nc5cccnc5s4)cc3)cc2s1`, the AC50 under setting [2] is 22.4 µM [rising, single point]. For the compound `COc1ccc(-c2nnc(SCC(=O)Nc3cccc(Cl)c3C)nc2-c2ccc(OC)cc2)cc1`, the AC50 under setting [1] is 0.0562 µM [falling, full curve, poor fit].

Regarding `O=C(NNC(=O)c1ccc(SCC2CCCO2)c([N+](=O)[O-])c1)c1ccc(F)cc1` (configuration not stated), the AC50 under setting [1] is 15.8 µM [rising, single point]. As to `CN(Cc1ccccc1)C(=O)CC(c1ccccc1)c1cc(Cl)ccc1O` (configuration not stated), the AC50 is 25.1 µM [falling, single point] under setting [1] and 31.6 µM [falling, single point] under setting [2].

As to `Cc1ccc(CNc2ncnc3c2cnn3-c2ccc(C)cc2C)cc1`, the AC50 under setting [2] was 5.62 µM [falling, single point]. Regarding `NC1CCN(O)C1=O` (configuration not stated), the concentration at half-maximal activity (AC50) under setting [1] is 0.01 µM [rising, full curve, poor fit]. As for `COCC(C)n1c(C)cc(C(=O)COC(=O)c2oc3ccccc3c2C)c1C` (configuration not stated), the AC50 reads like this: under setting [1], 1.12 µM [rising, partial curve, poor fit]; under setting [2], 22.4 µM [rising, partial curve, poor fit].

Turning to `CC(C)COc1ccc(C(=O)OCCN2CCOCC2)c(O)c1`, the AC50 under setting [2] is 12.6 µM [rising, single point]. On to `CN(Cc1ccccc1)CC(O)COc1ccc(CNCCCOc2cccnc2)cc1` (configuration not stated), for which the AC50 reads like this: under setting [1], 2.24 µM [falling, full curve]; under setting [2], 2 µM [falling, full curve]. For `C/C(=N\NC(=O)c1ccc(Cn2cc(Br)cn2)o1)c1cccc(NC(=O)C(C)(C)C)c1`, the AC50 runs as follows: under setting [1], 1.78 µM [rising, partial curve, poor fit]; under setting [2], 35.5 µM [rising, single point]. Regarding `C[C@]12CCC(=O)C=C1[C@@H]1C[C@H]1[C@H]1[C@@H]3[C@@H]4C[C@H]4[C@@]4(CCC(=O)O4)[C@@]3(C)CC[C@@H]12`, the AC50 was 2 µM [rising, full curve] under setting [1] and 0.708 µM [rising, full curve, poor fit] under setting [2].

As to `CN(Cc1cccc(-n2cccn2)c1)Cc1cn(C)nc1-c1ccccc1F`, under setting [2], the AC50 was 0.0316 µM [falling, full curve, poor fit]. On the same count and under the same terms, then `Cc1noc(C)c1CSc1ccccc1C(=O)N1CCN(c2ccccc2)CC1`, with 31.6 µM [rising, single point].

Regarding `CCN(CC)S(=O)(=O)c1ccc2[nH]cc(C(=O)NCCc3ccccc3)c(=O)c2c1`, the AC50 under setting [2] is 4.47 µM [rising, full curve, poor fit]. With `CCC(=O)c1ccc(N2CCN(C(=O)c3ccccc3)CC2)c(F)c1`, the half-maximal activity concentration (AC50) under setting [2] was 5.62 µM [falling, partial curve, poor fit]. In the case of `COc1ccc(-c2cc(C(F)(F)F)nc(NCc3cccnc3)n2)cc1`, the half-maximal activity concentration (AC50) under setting [1] is 22.4 µM [rising, single point]. Regarding `CC(=O)C1=C(c2ccc(Br)cc2)N(C(C)=O)n2c(nnc2C2CCCCC2)S1`, the half-maximal activity concentration (AC50) under setting [1] was 35.5 µM [falling, single point]. For the compound `Cc1nc2ccc(NS(=O)(=O)c3ccc(F)cc3)cc2s1`, the AC50 runs as follows: under setting [1], 11.2 µM [falling, partial curve]; under setting [2], 7.94 µM [falling, partial curve]. Regarding `COCCNC(=O)c1cccc(Nc2nc(-c3ccccc3)c3cc(Cl)ccc3n2)c1`, the half-maximal activity concentration (AC50) under setting [1] was 6.31 µM [falling, single point]. The same measure, in the same setting: the result for `O=C(O)c1ccc2c(c1)C(=O)N(c1cccc(C(=O)/C=C/c3ccccc3)c1)C2=O` reads 0.126 µM [falling, full curve, poor fit]. Turning to `CCOC(=O)c1c(C)oc2nc(C)nc(NCc3cccc(Cl)c3)c12`, the AC50 under setting [2] was 0.126 µM [falling, full curve, poor fit]. For the compound `COc1cc(NS(=O)(=O)c2ccc(C)cc2)c2ncccc2c1`, under setting [2], the AC50 was 15.8 µM [rising, single point]. On the same count and under the same terms, then `Cc1ccccc1Nc1nc2nonc2nc1N1CCOCC1`, with 0.447 µM [rising, full curve, poor fit].

`CC(=O)Nc1ccc(NC(=O)COc2ccccc2C(=O)Nc2cccc(Cl)c2Cl)cc1`: the AC50 under setting [1] is 31.6 µM [falling, single point].

`Cc1cccc(NC(=O)c2cccc(Cn3cc(Br)c([N+](=O)[O-])n3)c2)c1C`: the AC50 reads like this: under setting [1], 14.1 µM [rising, partial curve]; under setting [2], 14.1 µM [rising, partial curve]. As for `CN1C(=O)C2C(c3ccc(N(C)C)cc3)=NN(Cc3ccccc3)C2C1=O` (configuration not stated), the AC50 under setting [1] is 0.01 µM [rising, full curve, poor fit]. Consider `COc1cc(C(=O)N/N=c2/sc3ccccc3n2C)cc(OC)c1OC`, for which, under setting [2], the AC50 is 35.5 µM [rising, single point]. Turning to `CN1CCN(C(=S)SCC(=O)Nc2nc(-c3ccccc3)c(-c3ccccc3)o2)CC1`, the AC50 under setting [2] is 28.2 µM [rising, single point]. On to `COC(=O)c1ccc(NS(=O)(=O)c2cc(C)ccc2OC)cc1`, for which the AC50 under setting [2] is 20 µM [rising, single point]. Still for that read-out and setting: the result for `CCOc1cc(-c2c(C#N)c(N)nc3c2CCc2ccccc2-3)ccc1O` reads 31.6 µM [rising, single point]. As for `O=c1[nH]c(CN2CCc3ccccc32)nc2scc(-c3cccs3)c12`, the AC50 runs as follows: under setting [1], 3.98 µM [falling, single point]; under setting [2], 1.78 µM [falling, partial curve]. For `O=c1[nH]c(CSc2ccccn2)nc2c1cnn2-c1ccccc1`, the AC50 runs as follows: under setting [1], 7.94 µM [rising, partial curve, poor fit]; under setting [2], 14.1 µM [rising, single point].
